In article doi:10.1101/2022.11.26.517237:
Results are given in words; binding and its absence hold for the method and conditions named. Some entries that bind do so weakly or less than the wild type.

T1: Sis1_(1-352), full-length class B J-domain protein Sis1 of S. cerevisiae (S. cerevisiae) (UniProt P25294)
T1 sequence: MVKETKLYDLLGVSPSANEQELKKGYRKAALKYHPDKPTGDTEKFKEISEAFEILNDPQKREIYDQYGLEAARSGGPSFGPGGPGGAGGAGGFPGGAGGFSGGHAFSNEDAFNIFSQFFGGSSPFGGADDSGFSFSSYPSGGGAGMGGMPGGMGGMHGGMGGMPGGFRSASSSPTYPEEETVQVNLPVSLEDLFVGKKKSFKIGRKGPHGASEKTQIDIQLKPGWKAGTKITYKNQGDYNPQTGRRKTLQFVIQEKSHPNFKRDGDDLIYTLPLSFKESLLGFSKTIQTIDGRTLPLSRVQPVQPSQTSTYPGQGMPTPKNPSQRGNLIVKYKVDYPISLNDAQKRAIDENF

T2: Sis1_(1-81), J-domain (1-72) and part of the GF region (73-81) of Sis1 (S. cerevisiae) (UniProt P25294)
T2 sequence: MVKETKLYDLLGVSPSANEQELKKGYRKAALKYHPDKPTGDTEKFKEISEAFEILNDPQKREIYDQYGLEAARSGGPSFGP


Tests used:
[1] = biological target: T1, Sis1_(1-352), full-length class B J-domain protein Sis1 of S. cerevisiae (S. cerevisiae); test: NMR titration
[2] = biological target: T2, Sis1_(1-81), J-domain (1-72) and part of the GF region (73-81) of Sis1 (S. cerevisiae); test: NMR titration

| Binder | binding [1] | binding [2] |
| --- | --- | --- |
| GPTIEEVD [GPTIEEVD peptide, C-terminal EEVD motif of HSP70] | binds weakly | binds weakly |
| Sis1_(1-81), J-domain (1-72) and part of the GF region (73-81) of Sis1 (domain or fragment, UniProt P25294 1-81) MVKETKLYDLLGVSPSANEQELKKGYRKAALKYHPDKPTGDTEKFKEISEAFEILNDPQKREIYDQYGLEAARSGGPSFGP |  | no binding |
